From PMC11374303
Where two headings read alike, the source gives them in different places. No constants are given. Whether binding was seen depends on the method and setting. In cells and extracts the contact can be indirect. A yes stands for co-enrichment or nearness to the bait. Other partners may have been found. For some assays here: No binding means not detected with the bait. For some assays here: Where a sequence is shown, tags or fusion partners need not be part of it. One block for each molecule: values may come before it.

The chains behind the UniProt entries cited, without tags or fusion partners. Residues count along the entry.
UniProt Q9WVA4: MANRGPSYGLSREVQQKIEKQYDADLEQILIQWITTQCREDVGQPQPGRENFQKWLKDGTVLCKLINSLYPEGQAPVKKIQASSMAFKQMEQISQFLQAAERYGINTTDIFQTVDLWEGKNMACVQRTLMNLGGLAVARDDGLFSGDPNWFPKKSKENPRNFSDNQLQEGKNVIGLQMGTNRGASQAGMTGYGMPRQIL
UniProt P01106: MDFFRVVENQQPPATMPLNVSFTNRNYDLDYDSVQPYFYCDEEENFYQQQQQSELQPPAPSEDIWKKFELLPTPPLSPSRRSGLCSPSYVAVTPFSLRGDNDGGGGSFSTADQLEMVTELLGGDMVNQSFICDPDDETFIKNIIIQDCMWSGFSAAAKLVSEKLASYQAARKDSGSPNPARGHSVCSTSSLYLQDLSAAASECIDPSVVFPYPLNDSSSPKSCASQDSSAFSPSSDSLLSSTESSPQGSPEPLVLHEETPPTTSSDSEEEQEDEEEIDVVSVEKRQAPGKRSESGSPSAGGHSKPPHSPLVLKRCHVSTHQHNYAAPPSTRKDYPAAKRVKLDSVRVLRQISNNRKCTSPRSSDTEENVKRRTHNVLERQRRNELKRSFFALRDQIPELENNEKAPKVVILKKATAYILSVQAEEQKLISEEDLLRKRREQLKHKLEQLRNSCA
UniProt Q99832: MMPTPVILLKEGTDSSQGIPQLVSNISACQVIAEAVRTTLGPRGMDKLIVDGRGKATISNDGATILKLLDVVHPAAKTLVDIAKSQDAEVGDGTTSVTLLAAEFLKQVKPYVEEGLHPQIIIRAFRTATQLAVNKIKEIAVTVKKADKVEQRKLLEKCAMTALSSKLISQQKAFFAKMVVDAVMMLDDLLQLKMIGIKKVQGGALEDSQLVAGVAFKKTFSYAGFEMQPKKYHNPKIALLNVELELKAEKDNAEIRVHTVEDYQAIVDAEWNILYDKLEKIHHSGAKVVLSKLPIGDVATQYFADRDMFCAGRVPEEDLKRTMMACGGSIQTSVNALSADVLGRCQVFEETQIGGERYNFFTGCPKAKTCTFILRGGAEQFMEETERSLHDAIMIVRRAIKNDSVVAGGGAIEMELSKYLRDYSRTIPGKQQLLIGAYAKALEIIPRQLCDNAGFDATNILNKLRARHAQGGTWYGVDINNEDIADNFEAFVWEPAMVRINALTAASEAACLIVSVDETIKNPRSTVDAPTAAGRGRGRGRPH
UniProt P37802: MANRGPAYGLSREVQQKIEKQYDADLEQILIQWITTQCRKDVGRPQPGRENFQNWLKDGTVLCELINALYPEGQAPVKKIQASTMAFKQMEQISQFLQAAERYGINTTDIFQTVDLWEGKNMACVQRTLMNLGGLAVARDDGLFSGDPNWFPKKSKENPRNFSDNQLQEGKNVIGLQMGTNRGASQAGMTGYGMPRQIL
UniProt Q9BXM7, residues 78-581: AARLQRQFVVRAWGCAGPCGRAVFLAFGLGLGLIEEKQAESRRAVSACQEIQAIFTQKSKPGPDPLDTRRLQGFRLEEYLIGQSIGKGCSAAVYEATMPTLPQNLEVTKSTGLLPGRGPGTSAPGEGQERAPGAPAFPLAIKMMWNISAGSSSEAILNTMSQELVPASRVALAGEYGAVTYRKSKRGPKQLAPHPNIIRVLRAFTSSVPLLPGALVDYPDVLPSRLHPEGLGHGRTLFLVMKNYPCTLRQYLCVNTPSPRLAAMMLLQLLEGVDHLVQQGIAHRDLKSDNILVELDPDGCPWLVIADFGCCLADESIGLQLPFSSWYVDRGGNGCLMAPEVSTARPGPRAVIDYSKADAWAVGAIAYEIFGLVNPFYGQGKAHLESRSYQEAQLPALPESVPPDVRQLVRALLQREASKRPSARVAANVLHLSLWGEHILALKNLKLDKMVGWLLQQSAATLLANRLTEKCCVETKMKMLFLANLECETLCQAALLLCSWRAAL
UniProt P48643: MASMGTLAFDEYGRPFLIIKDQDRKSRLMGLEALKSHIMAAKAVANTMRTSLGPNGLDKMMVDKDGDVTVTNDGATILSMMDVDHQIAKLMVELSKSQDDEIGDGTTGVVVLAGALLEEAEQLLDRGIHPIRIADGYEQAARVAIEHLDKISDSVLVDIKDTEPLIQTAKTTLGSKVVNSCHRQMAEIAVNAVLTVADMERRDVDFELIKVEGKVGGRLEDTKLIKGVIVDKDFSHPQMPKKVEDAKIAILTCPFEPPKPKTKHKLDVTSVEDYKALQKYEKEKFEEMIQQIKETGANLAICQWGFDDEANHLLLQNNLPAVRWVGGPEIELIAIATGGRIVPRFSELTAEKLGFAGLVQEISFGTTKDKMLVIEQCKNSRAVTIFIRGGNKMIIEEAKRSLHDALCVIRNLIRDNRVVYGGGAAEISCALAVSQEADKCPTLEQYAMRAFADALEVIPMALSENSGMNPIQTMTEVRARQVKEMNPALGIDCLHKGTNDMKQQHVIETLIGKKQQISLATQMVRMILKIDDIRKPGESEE
UniProt Q53EQ6: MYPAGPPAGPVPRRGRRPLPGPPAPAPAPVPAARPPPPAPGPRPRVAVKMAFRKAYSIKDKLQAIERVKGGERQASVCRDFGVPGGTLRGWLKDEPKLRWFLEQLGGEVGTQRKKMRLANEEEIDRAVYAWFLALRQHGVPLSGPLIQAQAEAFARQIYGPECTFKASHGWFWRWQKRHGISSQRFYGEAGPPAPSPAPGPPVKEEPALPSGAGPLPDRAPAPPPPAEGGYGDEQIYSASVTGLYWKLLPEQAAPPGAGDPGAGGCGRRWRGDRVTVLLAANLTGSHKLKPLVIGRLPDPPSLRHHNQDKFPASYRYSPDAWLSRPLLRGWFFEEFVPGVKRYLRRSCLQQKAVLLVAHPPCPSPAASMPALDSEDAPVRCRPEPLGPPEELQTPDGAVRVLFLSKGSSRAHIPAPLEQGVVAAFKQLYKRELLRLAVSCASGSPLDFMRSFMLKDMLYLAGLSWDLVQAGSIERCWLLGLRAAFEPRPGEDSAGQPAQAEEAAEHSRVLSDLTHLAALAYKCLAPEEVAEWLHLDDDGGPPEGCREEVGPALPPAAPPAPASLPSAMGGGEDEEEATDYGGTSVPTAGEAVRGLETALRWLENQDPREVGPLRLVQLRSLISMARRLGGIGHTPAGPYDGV

Legend:
[1] = biological target: T1, PSMA4-miniTurbo with a FLAG tag (ProteasomeID mouse) (UniProt Q9R1P0); experiment: proximity labelling; in vivo BioID in ProteasomeID mice (31 days doxycycline food, 3 daily subcutaneous biotin injections); kidney, liver, heart and skeletal muscle lysates; streptavidin enrichment, DIA mass spectrometry; vs. mice not fed doxycycline
T1 sequence: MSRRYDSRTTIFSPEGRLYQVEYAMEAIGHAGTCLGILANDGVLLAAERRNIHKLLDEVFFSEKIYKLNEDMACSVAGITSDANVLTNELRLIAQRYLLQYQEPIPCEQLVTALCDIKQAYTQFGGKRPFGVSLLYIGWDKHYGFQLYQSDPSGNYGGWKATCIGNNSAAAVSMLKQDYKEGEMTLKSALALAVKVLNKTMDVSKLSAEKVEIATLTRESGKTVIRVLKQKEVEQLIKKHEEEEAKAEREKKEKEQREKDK

[2] = biological target: PSMA4-miniTurbo-FLAG (HEK293T cell line) (human) (UniProt P25789); experiment: proximity labelling; BioID in HEK293T expressing PSMA4-miniTurbo (tetracycline 4 days, 50 µM biotin 2 hr) with 20 µM MG132 for 4 hr; streptavidin enrichment, DIA mass spectrometry; vs. miniTurbo control
[3] = biological target: PSMA4-miniTurbo-FLAG (HEK293T cell line) (human) (UniProt P25789); experiment: proximity labelling; BioID in HEK293T expressing PSMA4-miniTurbo (tetracycline 4 days, 50 µM biotin 2 hr), vehicle control without MG132; streptavidin enrichment, DIA mass spectrometry; vs. miniTurbo control
PSMA4-BirA*-FLAG (human) [4] = biological target: PSMA4-BirA*-FLAG (human) (UniProt P25789); experiment: proximity labelling; BioID in HEK293T lines expressing BirA* fusions (tetracycline 4 days, 50 µM biotin 24 hr); streptavidin enrichment from lysates, DIA mass spectrometry; enrichment vs. BirA* control, n=4
[5] = biological target: PSMA4-miniTurbo-FLAG (HEK293T cell line) (human) (UniProt P25789); experiment: proximity labelling; BioID in HEK293T expressing PSMA4-miniTurbo (tetracycline 4 days, 50 µM biotin 2 hr) with 20 µM MG132 for 4 hr; streptavidin enrichment, DIA mass spectrometry; vs. miniTurbo control; remark: listed apart in the source
[6] = biological target: PSMA4-miniTurbo-FLAG (HEK293T cell line) (human) (UniProt P25789); experiment: proximity labelling; BioID in HEK293T expressing PSMA4-miniTurbo (tetracycline 4 days, 50 µM biotin 2 hr), vehicle control without MG132; streptavidin enrichment, DIA mass spectrometry; vs. miniTurbo control; remark: listed apart in the source
PSMA4-BirA*-FLAG (human) [7] = biological target: PSMA4-BirA*-FLAG (human) (UniProt P25789); experiment: proximity labelling; BioID in HEK293T lines expressing BirA* fusions (tetracycline 4 days, 50 µM biotin 24 hr); streptavidin enrichment from lysates, DIA mass spectrometry; enrichment vs. BirA* control, n=4; remark: listed apart in the source

binding [1]: binds
Molecule: transgelin 2 (TAGLN2), endogenous in mouse organs (from UniProt Q9WVA4 1-199)

binding [2]: binds
Molecule: MYC (from UniProt P01106 1-454)
binding [3]: no binding (only vehicle control, without MG132)

binding (PSMA4-BirA*-FLAG (human) [4]): binds
Molecule: CCT7 (from UniProt Q99832 1-543)

binding (PSMA4-BirA*-FLAG (human) [4]): binds
Molecule: transgelin 2 (TAGLN2), endogenous in HEK293T (from UniProt P37802 1-199)

binding [5]: binds
B1: armadillo containing protein 6 (ARMC6) (protein, UniProt Q6NXE6 1-501)
chain: MSERCCSRYSSGASIGCTPTSTQAKMVSKRIAQETFDAAVRENIEEFAMGPEEAVKEAVEQFESQGVDLSNIVKTAPKVSADGSQEPTHDILQMLSDLQESVASSRPQEVSAYLTRFCDQCKQDKACRFLAAQKGAYPIIFTAWKLATAGDQGLLLQSLNALSVLTDGQPDLLDAQGLQLLVATLTQNADEADLTCSGIRCVRHACLKHEQNRQDLVKAGVLPLLTGAITHHGHHTDVVREACWALRVMTFDDDIRVPFGHAHNHAKMIVQENKGLKVLIEATKAFLDNPGILSELCGTLSRLAIRNEFCQEVVDLGGLSILVSLLADCNDHQMRDQSGVQELVKQVLSTLRAIAGNDDVKDAIVRAGGTESIVAAMTQHLTSPQVCEQSCAALCFLALRKPDNSRIIVEGGGAVAALQAMKAHPQKAGVQKQACMLIRNLVAHGQAFSKPILDLGAEALIMQARSAHRDCEDVAKAALRDLGCHVELRELWTGQRGNLAP
binding [6]: no binding (only vehicle control, without MG132)

binding [1]: binds
B2: immunoglobulin-binding protein 1 (IGBP1), endogenous in mouse organs (protein, UniProt Q61249 1-340)
chain: MAASEDELLLPRLPELFETSKKLLEDVEVATEPTGSRTIQDKVSKGLELLEKAAGMLSQLDLFSRNEDLEEIASTDLKYLMVPALQGALTMKQVNPSKRLDHLQRAREHFVHFLTQCHCYHVAEFQLPQTKTNSAENNTASSSMAYPNLVAMASQRQAKIERYKQKKEVEHRLSALKSAVESGQADDERVREYHLLHLRRWIAVSLEELESIDQEIKILKEKDSPREETACHSSLPEKPPMKPFILTRNKAQAKVFGTGYPSLATMTVSDWYEQHQKYGVLPDRGIAKPASADFQRAAQQQEDQEQKDEESEEKALHRMREWDDWKDTHPRGYGNRQNMG

binding (PSMA4-BirA*-FLAG (human) [7]): binds
B4: CCT2 (protein, UniProt P78371 1-535)
chain: MASLSLAPVNIFKAGADEERAETARLTSFIGAIAIGDLVKSTLGPKGMDKILLSSGRDASLMVTNDGATILKNIGVDNPAAKVLVDMSRVQDDEVGDGTTSVTVLAAELLREAESLIAKKIHPQTIIAGWREATKAAREALLSSAVDHGSDEVKFRQDLMNIAGTTLSSKLLTHHKDHFTKLAVEAVLRLKGSGNLEAIHIIKKLGGSLADSYLDEGFLLDKKIGVNQPKRIENAKILIANTGMDTDKIKIFGSRVRVDSTAKVAEIEHAEKEKMKEKVERILKHGINCFINRQLIYNYPEQLFGAAGVMAIEHADFAGVERLALVTGGEIASTFDHPELVKLGSCKLIEEVMIGEDKLIHFSGVALGEACTIVLRGATQQILDEAERSLHDALCVLAQTVKDSRTVYGGGCSEMLMAHAVTQLANRTPGKEAVAMESYAKALRMLPTIIADNAGYDSADLVAQLRAAHSEGNTTAGLDMREGTIGDMAILGITESFQVKRQVLLSAAEAAEVILRVDNIIKAAPRKRVPDHHPC

Second part, the molecule before the results:

Molecule: PINK1 (from UniProt Q9BXM7 78-581)
binding [2]: binds
binding [3]: no binding (only vehicle control, without MG132)

Molecule: CCT5 (from UniProt P48643 1-541)
binding (PSMA4-BirA*-FLAG (human) [4]): binds

Molecule: Tigger transposable element-derived protein 5 (TIGD5) (from UniProt Q53EQ6 1-642)
binding [2]: binds
binding [3]: no binding (only vehicle control, without MG132)

B3: immunoglobulin-binding protein 1 (IGBP1), endogenous in HEK293T (protein, UniProt P78318 1-339)
chain: MAAEDELQLPRLPELFETGRQLLDEVEVATEPAGSRIVQEKVFKGLDLLEKAAEMLSQLDLFSRNEDLEEIASTDLKYLLVPAFQGALTMKQVNPSKRLDHLQRAREHFINYLTQCHCYHVAEFELPKTMNNSAENHTANSSMAYPSLVAMASQRQAKIQRYKQKKELEHRLSAMKSAVESGQADDERVREYYLLHLQRWIDISLEEIESIDQEIKILRERDSSREASTSNSSRQERPPVKPFILTRNMAQAKVFGAGYPSLPTMTVSDWYEQHRKYGALPDQGIAKAAPEEFRKAAQQQEEQEEKEEEDDEQTLHRAREWDDWKDTHPRGYGNRQNMG
binding (PSMA4-BirA*-FLAG (human) [7]): binds

B5: BRCA1-associated ATM activator 1 (BRAT1) (protein, UniProt Q6PJG6 1-821)
chain: MDPECAQLLPALCAVLVDPRQPVADDTCLEKLLDWFKTVTEGESSVVLLQEHPCLVELLSHVLKVQDLSSGVLSFSLRLAGTFAAQENCFQYLQQGELLPGLFGEPGPLGRATWAVPTVRSGWIQGLRSLAQHPSALRFLADHGAVDTIFSLQGDSSLFVASAASQLLVHVLALSMRGGAEGQPCLPGGDWPACAQKIMDHVEESLCSAATPKVTQALNVLTTTFGRCQSPWTEALWVRLSPRVACLLERDPIPAAHSFVDLLLCVARSPVFSSSDGSLWETVARALSCLGPTHMGPLALGILKLEHCPQALRTQAFQVLLQPLACVLKATVQAPGPPGLLDGTADDATTVDTLLASKSSCAGLLCRTLAHLEELQPLPQRPSPWPQASLLGATVTVLRLCDGSAAPASSVGGHLCGTLAGCVRVQRAALDFLGTLSQGTGPQELVTQALAVLLECLESPGSSPTVLKKAFQATLRWLLSSPKTPGCSDLGPLIPQFLRELFPVLQKRLCHPCWEVRDSALEFLTQLSRHWGGQADFRCALLASEVPQLALQLLQDPESYVRASAVTAMGQLSSQGLHAPTSPEHAEARQSLFLELLHILSVDSEGFPRRAVMQVFTEWLRDGHADAAQDTEQFVATVLQAASRDLDWEVRAQGLELALVFLGQTLGPPRTHCPYAVALPEVAPAQPLTEALRALCHVGLFDFAFCALFDCDRPVAQKSCDLLLFLRDKIASYSSLREARGSPNTASAEATLPRWRAGEQAQPPGDQEPEAVLAMLRSLDLEGLRSTLAESSDHVEKSPQSLLQDMLATGGFLQGDEADCY
binding [5]: binds
binding [6]: no binding (only vehicle control, without MG132)
